Assay results as given in article PMC6269430.
No constants are given. Whether binding was seen depends on the method and setting. In cells and extracts the contact can be indirect.

By UniProt entry, the sequences of proteins in these tests, tags left out.
UniProt Q02248: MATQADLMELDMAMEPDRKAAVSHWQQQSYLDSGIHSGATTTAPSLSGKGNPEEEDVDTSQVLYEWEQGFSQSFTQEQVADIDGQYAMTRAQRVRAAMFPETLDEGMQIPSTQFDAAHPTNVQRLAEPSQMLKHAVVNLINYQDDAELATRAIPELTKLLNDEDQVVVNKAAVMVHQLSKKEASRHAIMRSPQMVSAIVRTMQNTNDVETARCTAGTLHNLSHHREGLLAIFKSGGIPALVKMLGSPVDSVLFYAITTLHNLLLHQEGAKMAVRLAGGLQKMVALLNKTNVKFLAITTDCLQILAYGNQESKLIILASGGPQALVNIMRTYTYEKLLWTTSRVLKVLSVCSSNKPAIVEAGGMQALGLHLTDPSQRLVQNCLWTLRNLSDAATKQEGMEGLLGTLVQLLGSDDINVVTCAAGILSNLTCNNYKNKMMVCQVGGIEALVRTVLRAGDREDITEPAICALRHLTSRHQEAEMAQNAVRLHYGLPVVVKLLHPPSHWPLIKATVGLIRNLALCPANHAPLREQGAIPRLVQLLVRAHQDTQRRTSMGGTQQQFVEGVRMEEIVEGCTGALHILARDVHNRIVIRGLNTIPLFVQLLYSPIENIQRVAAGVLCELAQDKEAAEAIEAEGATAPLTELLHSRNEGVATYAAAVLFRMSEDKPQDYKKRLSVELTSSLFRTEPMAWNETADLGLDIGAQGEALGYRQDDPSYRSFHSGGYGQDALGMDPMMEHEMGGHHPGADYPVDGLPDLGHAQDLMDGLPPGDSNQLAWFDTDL
UniProt Q99LG0: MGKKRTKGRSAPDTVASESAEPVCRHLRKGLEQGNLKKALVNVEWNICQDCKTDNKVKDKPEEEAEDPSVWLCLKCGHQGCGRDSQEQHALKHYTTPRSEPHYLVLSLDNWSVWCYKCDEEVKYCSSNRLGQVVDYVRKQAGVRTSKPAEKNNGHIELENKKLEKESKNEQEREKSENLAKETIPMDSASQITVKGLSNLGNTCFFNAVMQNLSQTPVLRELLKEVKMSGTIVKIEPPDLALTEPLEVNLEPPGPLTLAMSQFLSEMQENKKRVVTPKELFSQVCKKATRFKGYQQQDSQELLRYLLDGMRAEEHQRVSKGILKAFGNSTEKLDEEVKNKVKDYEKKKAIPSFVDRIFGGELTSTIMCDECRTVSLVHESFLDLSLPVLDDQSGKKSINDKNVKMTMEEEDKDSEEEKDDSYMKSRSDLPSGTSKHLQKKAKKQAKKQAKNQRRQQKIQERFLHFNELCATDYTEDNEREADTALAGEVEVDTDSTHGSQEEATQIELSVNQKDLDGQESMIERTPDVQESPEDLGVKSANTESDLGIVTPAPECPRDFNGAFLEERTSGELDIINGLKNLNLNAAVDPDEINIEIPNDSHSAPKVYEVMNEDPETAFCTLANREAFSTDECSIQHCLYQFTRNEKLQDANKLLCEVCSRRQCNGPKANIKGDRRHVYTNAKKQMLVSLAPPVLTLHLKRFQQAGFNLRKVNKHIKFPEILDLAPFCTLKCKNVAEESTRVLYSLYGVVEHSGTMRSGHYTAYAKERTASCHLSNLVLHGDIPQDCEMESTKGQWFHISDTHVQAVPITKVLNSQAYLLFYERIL

Target: β-Catenin (mouse (endogenous in MEF)) (UniProt Q02248)
Assay: co-IP; Pierce Co-IP kit; 10 ug antibody to USP16 or to β-catenin (control: rabbit IgG) coupled to AminoLink Plus resin; 1 mg precleared MEF P2 lysate, 4 °C overnight; immunoblot

binding: no binding
Substance: Usp16 (from UniProt Q99LG0 1-825) (enzyme)
